Record: PubChem BioAssay AID504764 (Drosophila RNAi Screening Center, 2011)

Aim: 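Genes whose knock-down alters Notch-dependent transcription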 (primary screen)
Cells: Drosophila Kc167 cells
Knock-down reagent: long dsRNA against Drosophila genes
Duration: about 5 days (4 days dsRNA, then 24 h after transfection)
Challenge: transfection of constitutively active membrane-tethered Notch lacking the extracellular domain, read 24 h later
Measurement: 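Firefly luciferase from an E(spl)m3 reporter with active Notch, plus control-promoter and uninduced reporter wells for normalisation; unnormalised counts, duplicate wells a and b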
Reading the numbers: induced reporter light, run 1, well a and induced reporter light, run 1, well b: higher = more light from the Notch target reporter with active Notch; control promoter light, run 1, well a and control promoter light, run 1, well b: higher = more light from the viral control promoter (cell number, transfection, viability); uninduced reporter light, run 1, well a: higher = more light from the Notch target reporter without active Notch
Call rule: 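Hit if the duplicate-averaged log2 ratio of induced to control-promoter light gives a plate-wise z beyond ±2, or induced to uninduced beyond ±1.8; weak-control or discordant-duplicate wells dropped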
Calls: active = modifier hit (raised or lowered Notch signal); inactive = not a hit
In all, the deposit lists about 22,000 reagents; this is an unselected part of those that have a named target and a result. Over the whole deposit, 403 (1.9%) are marked active. 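Unnormalised raw counts per well; ratio z-scores behind the hit calls and whether each hit raises or lowers signal are not deposited.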 Not stated in the record: the amount of reagent.

Against l(1)G0020 [DRSC18198] the deposit lists induced reporter light, run 1, well a = 1.89e5; induced reporter light, run 1, well b = 1.69e5; control promoter light, run 1, well a = 2.74e5; control promoter light, run 1, well b = 3.20e5; uninduced reporter light, run 1, well a = 12465; inactive. With knock-down of CG4297 [DRSC00651] the results were induced reporter light, run 1, well a = 1.03e5; induced reporter light, run 1, well b = 1.08e5; control promoter light, run 1, well a = 1.08e5; control promoter light, run 1, well b = 58550; uninduced reporter light, run 1, well a = 7638; inactive. For CG30427 [DRSC04014], the entry reads induced reporter light, run 1, well a = 1.21e5; induced reporter light, run 1, well b = 1.46e5; control promoter light, run 1, well a = 2.04e5; control promoter light, run 1, well b = 1.88e5; uninduced reporter light, run 1, well a = 7860; inactive. Knock-down of CG30427 [DRSC04311] gave: induced reporter light, run 1, well a = 2.36e5; induced reporter light, run 1, well b = 1.78e5; control promoter light, run 1, well a = 1.44e5; control promoter light, run 1, well b = 1.77e5; uninduced reporter light, run 1, well a = 12840; inactive. Depletion of CG30427 [DRSC04323] came out at: induced reporter light, run 1, well a = 1.83e5; induced reporter light, run 1, well b = 2.04e5; control promoter light, run 1, well a = 1.85e5; control promoter light, run 1, well b = 1.91e5; uninduced reporter light, run 1, well a = 16160; inactive. Bap170 [DRSC04964] scored induced reporter light, run 1, well a = 78820; induced reporter light, run 1, well b = 79425; control promoter light, run 1, well a = 58485; control promoter light, run 1, well b = 68480; uninduced reporter light, run 1, well a = 3980; active.

unc-5 [DRSC05545] gave induced reporter light, run 1, well a = 1.88e5; induced reporter light, run 1, well b = 1.66e5; control promoter light, run 1, well a = 2.56e5; control promoter light, run 1, well b = 2.80e5; uninduced reporter light, run 1, well a = 15382; inactive. Depletion of unc-5 [DRSC07711] gave: induced reporter light, run 1, well a = 93835; induced reporter light, run 1, well b = 92225; control promoter light, run 1, well a = 1.26e5; control promoter light, run 1, well b = 90515; uninduced reporter light, run 1, well a = 7418; inactive. Knock-down of unc-5 [DRSC07712] resulted in: induced reporter light, run 1, well a = 68840; induced reporter light, run 1, well b = 85170; control promoter light, run 1, well a = 1.09e5; control promoter light, run 1, well b = 1.02e5; uninduced reporter light, run 1, well a = 6655; inactive. Silencing of Ir7c [DRSC18007] resulted in: induced reporter light, run 1, well a = 1.70e5; induced reporter light, run 1, well b = 1.84e5; control promoter light, run 1, well a = 3.27e5; control promoter light, run 1, well b = 3.24e5; uninduced reporter light, run 1, well a = 12040; inactive. Against CG15012 [DRSC08465], the entry reads induced reporter light, run 1, well a = 1.62e5; induced reporter light, run 1, well b = 1.08e5; control promoter light, run 1, well a = 83565; control promoter light, run 1, well b = 36375; uninduced reporter light, run 1, well a = 13265; inactive. For CG9922 [DRSC16579], the entry reads induced reporter light, run 1, well a = 2.01e5; induced reporter light, run 1, well b = 2.14e5; control promoter light, run 1, well a = 1.43e5; control promoter light, run 1, well b = 1.84e5; uninduced reporter light, run 1, well a = 15128; inactive.

Quoted from above (2 entries):
unc-5 [DRSC07711] | induced reporter light, run 1, well a: 93835; induced reporter light, run 1, well b: 92225; control promoter light, run 1, well a: 1.26e5; control promoter light, run 1, well b: 90515; uninduced reporter light, run 1, well a: 7418; Outcome: inactive
unc-5 [DRSC07712] | induced reporter light, run 1, well a: 68840; induced reporter light, run 1, well b: 85170; control promoter light, run 1, well a: 1.09e5; control promoter light, run 1, well b: 1.02e5; uninduced reporter light, run 1, well a: 6655; Outcome: inactive
